Data as given in publication PMC5996148.
The other results are listed elsewhere or left out.

What was measured:
Assay in all cases: protein microarray (ProtoArray v5.0), streptavidin-Alexa Fluor 647
Settings in all cases: 3'-biotin; 20 mM Tris (pH 7.5), 5 mM MgCl2, 100 mM KCl, 0.1% Tween-20, A/T-rich and random oligonucleotide blockers; temperature not stated; high values mean tight binding
LOC199800 (human) = tested on: LOC199800 (human)
LOC201725 (human) = tested on: LOC201725 (human)
LOC202459 (human) = tested on: LOC202459 (human)
LOC220906 (human) = tested on: LOC220906 (human)
LOC253012 (human) = tested on: LOC253012 (human)
LOC284134 (human) = tested on: LOC284134 (human)
LOC284422 (human) = tested on: LOC284422 (human)
LOC285141 (human) = tested on: LOC285141 (human)
LOC285401 (human) = tested on: LOC285401 (human)
LOC285577 (human) = tested on: LOC285577 (human)
LOC286208 (human) = tested on: LOC286208 (human)
LOC339483 (human) = tested on: LOC339483 (human)
LOC339804 (human) = tested on: LOC339804 (human)
LOC387942 (human) = tested on: LOC387942 (human)
LOC389687 (human) = tested on: LOC389687 (human)
LOC389822 (human) = tested on: LOC389822 (human)
LOC399951 (human) = tested on: LOC399951 (human)
LOC400120 (human) = tested on: LOC400120 (human)
LOC400600 (human) = tested on: LOC400600 (human)
LOC400877 (human) = tested on: LOC400877 (human)

GGGAGGCTGAGGCAGG [G4-1 biotinylated (PQS2)]
binding signal (LOC199800 (human)): -0.313 z-score
binding signal (LOC201725 (human)): -0.356 z-score
binding signal (LOC202459 (human)): -0.343 z-score
binding signal (LOC220906 (human)): -0.236 z-score
binding signal (LOC253012 (human)): -0.304 z-score
binding signal (LOC284134 (human)): -0.33 z-score
binding signal (LOC284422 (human)): -0.316 z-score
binding signal (LOC285141 (human)): -0.337 z-score
binding signal (LOC285401 (human)): -0.276 z-score
binding signal (LOC285577 (human)): -0.326 z-score
binding signal (LOC286208 (human)): -0.309 z-score
binding signal (LOC339483 (human)): -0.338 z-score
binding signal (LOC339804 (human)): -0.236 z-score
binding signal (LOC387942 (human)): -0.28 z-score
binding signal (LOC389687 (human)): -0.283 z-score
binding signal (LOC389822 (human)): -0.31 z-score
binding signal (LOC399951 (human)): -0.27 z-score
binding signal (LOC400120 (human)): -0.289 z-score
binding signal (LOC400600 (human)): -0.32 z-score
binding signal (LOC400877 (human)): -0.299 z-score
